Earlier results in patent publication US9868789B2, “Synergistic combinations of OX40L antibodies for the treatment of GvHD” (Kymab Limited, priority 2015, dated 2018).
For at least one compound, name, drawing or mass did not settle the structure.

Tested on: Rhesus Macaque model of haploidentical hematopoietic stem cell transplantation (HSCT)
Settings: comparator data from Furlan et al., 2015; rapamycin monotherapy n=4; cited from earlier work

CO[C@H]1C[C@@H]2CC[C@@H](C)[C@@](O)(O2)C(=O)C(=O)N2CCCC[C@H]2C(=O)O[C@H]([C@H](C)C[C@@H]2CC[C@@H](O)[C@H](OC)C2)CC(=O)[C@H](C)/C=C(\C)[C@@H](O)[C@@H](OC)C(=O)[C@H](C)C[C@H](C)/C=C/C=C/C=C/1C [rapamycin]
median survival time, MST: 17 days
